Our source for the binding values is doi:10.1101/2023.01.21.525018.

Read-outs that look alike come from different tables or passages of the source. Results are given in words; binding and its absence hold for the method and conditions named. In cells and extracts the contact can be indirect. Some binding calls cover weakened binding; strength is not graded here. Sequences can lack the tags named with a protein.

Assay in all cases: split reporter
In one test the target is T1, Psm1-cYFP (S. pombe) (UniProt O94383).
T1 sequence: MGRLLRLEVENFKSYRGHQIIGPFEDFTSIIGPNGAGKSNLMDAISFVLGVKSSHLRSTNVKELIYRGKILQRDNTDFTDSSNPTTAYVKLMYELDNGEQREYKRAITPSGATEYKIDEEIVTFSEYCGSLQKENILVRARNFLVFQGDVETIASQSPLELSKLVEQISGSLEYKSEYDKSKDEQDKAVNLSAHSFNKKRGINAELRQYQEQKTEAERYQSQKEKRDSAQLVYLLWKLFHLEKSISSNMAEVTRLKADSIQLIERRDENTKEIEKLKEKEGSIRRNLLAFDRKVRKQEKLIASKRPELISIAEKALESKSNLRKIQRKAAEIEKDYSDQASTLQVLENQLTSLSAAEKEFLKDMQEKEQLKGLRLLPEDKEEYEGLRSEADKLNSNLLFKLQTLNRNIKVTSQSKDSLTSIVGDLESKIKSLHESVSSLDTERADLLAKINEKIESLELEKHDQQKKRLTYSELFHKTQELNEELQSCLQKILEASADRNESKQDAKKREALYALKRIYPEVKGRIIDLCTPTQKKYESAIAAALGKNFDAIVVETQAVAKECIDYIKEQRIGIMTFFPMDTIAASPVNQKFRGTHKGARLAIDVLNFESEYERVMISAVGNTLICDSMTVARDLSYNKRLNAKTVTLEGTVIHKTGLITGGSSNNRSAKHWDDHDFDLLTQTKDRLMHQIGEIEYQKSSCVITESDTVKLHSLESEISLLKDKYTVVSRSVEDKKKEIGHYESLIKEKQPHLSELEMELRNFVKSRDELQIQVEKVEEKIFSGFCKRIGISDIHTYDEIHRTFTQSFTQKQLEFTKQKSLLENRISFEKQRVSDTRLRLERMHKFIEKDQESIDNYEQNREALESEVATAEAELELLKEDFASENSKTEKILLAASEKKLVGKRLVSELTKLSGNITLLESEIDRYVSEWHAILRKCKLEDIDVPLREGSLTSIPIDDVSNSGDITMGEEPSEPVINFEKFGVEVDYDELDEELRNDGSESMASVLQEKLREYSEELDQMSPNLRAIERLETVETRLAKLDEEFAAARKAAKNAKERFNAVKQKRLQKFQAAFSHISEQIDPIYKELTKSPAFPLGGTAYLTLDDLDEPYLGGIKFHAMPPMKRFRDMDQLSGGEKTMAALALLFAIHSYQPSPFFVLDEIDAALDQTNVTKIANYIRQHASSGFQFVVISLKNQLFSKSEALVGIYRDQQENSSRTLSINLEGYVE

For test [1], the target named is T2, Psm1-nYFP (S. pombe) (UniProt O94383).
T2 sequence: T1 sequence

In test [2] the target is T2, Psm1-nYFP (S. pombe). The source holds these as a separate data set.

B1: Rad21-nYFP (protein, UniProt P30776 1-628)
chain: MFYSEAILSKKGPLAKVWLAAHWEKKLSKVQTLHTSIEQSVHAIVTEETAPMALRLSGQLMLGVVRIYSRKARYLLEDCTEALMRLKMSFQPGQVDMIEPATALQSLKGKDAVTQSANLTLPETITEFDLLVPDSTFDFQWSQLLRTPSRSSNTLELHSLPISSSPSFPSSQLSIEAGRNAQVESGFSLGESFAHVGNDMQFHLPISNSGAATPRSVHSDNQSQISIEVGRDAPAAAATDLSGIIGPQMTKSPASSVTHFSTPSMLPIGGTSLDDELLAPVDDLNLDLGLDDLLGDEQGANAPAIEADEQAETSSIHLPSDIMEDDSSRPAAAGVEEGQVVESATAPQQEKINPQKTVRRQRAIIDPVTELSSKQMKKQLADTSSITSPLCLNTSSIVFNATVNFTRNGKFNTSIFSSNLNPKVNELLQADFKQAILRKRKNESPEEVEPAKHQRTDTSTENQETAEVLDPEEIAAAELANITEAAIATLPQETVVQPEGEAPELGSPMGFPVTALESADDSLFDAPPVMLDEADLLGSERLDSSVSEALPSSQTAKDSLRNKWDPYTEGEKVSFQTLSAGCNREEAVQLFFDVLVLATKDVISVKQDVAIQNEITLTAKRGMLLSSL
Take B1: in the test with Psm1-cYFP (S. pombe), the binding result was “binds”.

B2: Rad21-cYFP (protein, UniProt P30776 1-628)
chain: B1 chain
Turning to B2, the binding entry was “binds weakly” with Psm1-nYFP (S. pombe) [1] and “binds” with Psm1-nYFP (S. pombe) [2].
